Holding throughout (type): cell-based
One data set relates to HeLa. As to the kind of experiment: MTT antiproliferation assay, HeLa. The conditions noted are these: Homo sapiens, 48 h, read-out: IC50 ± SD HeLa. From the text: (§1) […]. […] […]. […] […].
(§2) MCF-7 (human breast cell line), HeLa (human cervical cell line), A549 (human lung cell line), HepG2 (human liver cell line), SW620 (human colorectal cell line) and a non-cancer cell line, NCM460 (Human colonic epithelial cells) were preserved at the State Key Laboratory of Pharmaceutical Biotechnology, Nanjing University (Nanjing, China). Cells were maintained in Dulbecco′s modified Eagle′s medium (DMEM) (HyClone, Logan, UT, USA) with 10% fetal bovine serum (FBS, BI) (HyClone, Logan, UT, USA), 100 U/mL penicillin and […] streptomycin (Hyclone, Logan, UT, USA), and incubated at 37 °C in a humidified atmosphere containing 5% CO2.
(§3) The antiproliferative activity of the synthetic compounds against the SW620, MCF-7, HeLa, A549, HepG2, and NUM460 cell lines was evaluated by a colorimetric assay based on a modified standard (MTT). Test cell lines were seeded at a density of 1 × 10^4/well in 96-well plates and incubated for 12 h at 37 °C in DMEM supplemented with 10% fetal bovine serum. All test compounds dissolved in DMSO were then treated to cells at 0 μM, 0.1 μM, 1 μM, 10 μM, and 100 μM and incubated for 48 h at 37 °C in 5% CO2. […] The absorbance (OD 570 nm) was read at 630 nm on an ELISA reader (ELx800, BioTek, montpelier, VT, USA). IC50 values for the compounds were calculated by comparison to DMSO treated control wells. […]
(Formazan colour is commonly taken as a measure of viable cells.)

Data set [1] in a line: MTT cytotoxicity assay, non-cancer colon cells. Particulars: human, NCM460 colonic epithelial cells (non-cancer cell line), n = 3, non-cancer cell line, read-out: CC50 ± SD NUM460. Here is the method: […]. […] […]. Besides, the MTT assay was performed on a non-cancer line NCM460 to assess the cytotoxicity of the test compound to normal colon cells. […].
as §2
The antiproliferative activity of the synthetic compounds against the SW620, MCF-7, HeLa, A549, HepG2, and NUM460 cell lines was evaluated by a colorimetric assay based on a modified standard (MTT). Test cell lines were seeded at a density of 1 × 10^4/well in 96-well plates and incubated for 12 h at 37 °C in DMEM supplemented with 10% fetal bovine serum. […] The absorbance (OD 570 nm) was read at 630 nm on an ELISA reader (ELx800, BioTek, montpelier, VT, USA). IC50 values for the compounds were calculated by comparison to DMSO treated control wells. […]

The test system of the next data set is MCF-7. As to the kind of experiment: MTT antiproliferation assay, MCF-7. Particulars: Homo sapiens, MCF7, 48 h, read-out: IC50 ± SD MCF-7.
Source text: as §1, §2, §3

The next data set relates to HepG2. As to the kind of experiment: MTT antiproliferation assay, HepG2. Particulars: Homo sapiens, HepG2, 48 h, read-out: IC50 ± SD HepG2.
Source text: as §1, §2, §3

A further data set has as its system SW620 cells. As to the kind of experiment: MTT antiproliferation assay, SW620. Particulars: Homo sapiens, SW-620, 48 h, read-out: IC50 ± SD SW620.
Source text: as §1, §2, §3

The term IC50 denotes the concentration at which inhibition is half-maximal. As usually defined, the CC50 is the concentration that lowers cell viability or growth by half. On to `Cc1ccc(-c2cc(C(F)(F)F)nn2-c2ccc(S(N)(=O)=O)cc2)cc1` [Celecoxib, reference compound], for which the 50% inhibitory concentration (IC50) in the data set with HeLa turned out to be 2560 ± 150 nM; in the data set on MCF-7 it was 2630 ± 90 nM; in the data set on HepG2 it was 3120 ± 270 nM; in the data set on SW620 cells, 1290 ± 40 nM. Also, in data set [1], the cytotoxic concentration (CC50) at 48 h is 136000 ± 9860 nM.

For the origin of these results see article PMC6539903 (Molecules, 2019).
